{"source": "PubChem BioAssay AID1259308 (NCATS, 2017)", "test": "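Candidate targets for better recombinant protein yield in mammalian cells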 (primary screen)", "cells": "human HEK293 embryonic kidney cells stably expressing firefly luciferase (HEK-CMV-Luc2-Hygro)", "reagents": "single siRNA against human genes, 0.8 pmol siRNA per well", "timing": "72 h", "read-out": "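Luciferase light (ONE-Glo) measured on one replicate plate set and viability (CellTiter-Glo) on the other, scaled to a negative control siRNA, with robust z-scores and luciferase per cell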", "direction": "total luciferase, z-score and total luciferase, % of control: higher = more reporter protein produced", "call rule": "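An siRNA counts as active if its total luciferase robust z-score exceeds 3; genes with two or more such siRNAs out of three were retested with fresh siRNAs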", "calls": "active = raised luciferase; inactive = no rise", "note": "Shown is a random part of about 59,000 reagents tested. Over the whole deposit, about 1,510 (2.6%) got an active call. 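Calls use total luciferase alone and ignore viability, so some active siRNAs may act by altering cell number.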 Reagents against one gene are numbered here. Further read-outs or replicates are left out here. Reagent sequences are not shown."}
{"gene": "HAP1", "reagent": 1, "total luciferase, z-score": -0.0299, "total luciferase, % of control": 81.3, "call": "inactive"}
{"gene": "HAP1", "reagent": 2, "total luciferase, z-score": 0.208, "total luciferase, % of control": 86, "call": "inactive"}
{"gene": "HAP1", "reagent": 3, "total luciferase, z-score": -0.148, "total luciferase, % of control": 78.9, "call": "inactive"}
{"gene": "RASA4CP", "reagent": 1, "total luciferase, z-score": 0.71, "total luciferase, % of control": 96, "call": "inactive"}
{"gene": "RASA4CP", "reagent": 2, "total luciferase, z-score": -1.05, "total luciferase, % of control": 61, "call": "inactive"}
{"gene": "RASA4CP", "reagent": 3, "total luciferase, z-score": 1.42, "total luciferase, % of control": 110, "call": "inactive"}
{"gene": "NEO1", "reagent": 1, "total luciferase, z-score": 1.24, "total luciferase, % of control": 106, "call": "inactive"}
{"gene": "NEO1", "reagent": 2, "total luciferase, z-score": 0.249, "total luciferase, % of control": 86.8, "call": "inactive"}
{"gene": "NEO1", "reagent": 3, "total luciferase, z-score": -1.67, "total luciferase, % of control": 48.6, "call": "inactive"}
{"gene": "MPPED1", "reagent": 1, "total luciferase, z-score": -0.0379, "total luciferase, % of control": 81.1, "call": "inactive"}
{"gene": "MPPED1", "reagent": 2, "total luciferase, z-score": -0.677, "total luciferase, % of control": 68.4, "call": "inactive"}
{"gene": "MPPED1", "reagent": 3, "total luciferase, z-score": 1.23, "total luciferase, % of control": 106, "call": "inactive"}
{"gene": "MPPED1", "reagent": 4, "total luciferase, z-score": -0.674, "total luciferase, % of control": 68.5, "call": "inactive"}
{"gene": "MPPED1", "reagent": 5, "total luciferase, z-score": 1.15, "total luciferase, % of control": 105, "call": "inactive"}
{"gene": "MPPED1", "reagent": 6, "total luciferase, z-score": 0.554, "total luciferase, % of control": 92.9, "call": "inactive"}
{"gene": "RTL6", "reagent": 1, "total luciferase, z-score": 1.49, "total luciferase, % of control": 112, "call": "inactive"}
{"gene": "RTL6", "reagent": 2, "total luciferase, z-score": 0.112, "total luciferase, % of control": 84.1, "call": "inactive"}
{"gene": "RTL6", "reagent": 3, "total luciferase, z-score": 1.66, "total luciferase, % of control": 115, "call": "inactive"}
{"gene": "ABCA5", "reagent": 1, "total luciferase, z-score": 0.489, "total luciferase, % of control": 91.6, "call": "inactive"}
{"gene": "ABCA5", "reagent": 2, "total luciferase, z-score": -1.37, "total luciferase, % of control": 54.6, "call": "inactive"}
{"gene": "ABCA5", "reagent": 3, "total luciferase, z-score": -0.804, "total luciferase, % of control": 65.9, "call": "inactive"}
{"gene": "BCAR3", "reagent": 1, "total luciferase, z-score": -0.314, "total luciferase, % of control": 75.6, "call": "inactive"}
{"gene": "BCAR3", "reagent": 2, "total luciferase, z-score": -0.96, "total luciferase, % of control": 62.8, "call": "inactive"}
{"gene": "BCAR3", "reagent": 3, "total luciferase, z-score": -0.0353, "total luciferase, % of control": 81.2, "call": "inactive"}
{"gene": "CENPU", "reagent": 1, "total luciferase, z-score": -0.871, "total luciferase, % of control": 64.6, "call": "inactive"}
{"gene": "CENPU", "reagent": 2, "total luciferase, z-score": 0.838, "total luciferase, % of control": 98.6, "call": "inactive"}
{"gene": "CENPU", "reagent": 3, "total luciferase, z-score": 0.78, "total luciferase, % of control": 97.4, "call": "inactive"}
{"gene": "HIPK3", "reagent": 1, "total luciferase, z-score": 0.821, "total luciferase, % of control": 98.2, "call": "inactive"}
{"gene": "HIPK3", "reagent": 2, "total luciferase, z-score": -1.94, "total luciferase, % of control": 43.4, "call": "inactive"}
{"gene": "HIPK3", "reagent": 3, "total luciferase, z-score": -1.67, "total luciferase, % of control": 48.7, "call": "inactive"}
{"gene": "CST9", "reagent": 1, "total luciferase, z-score": -0.804, "total luciferase, % of control": 65.9, "call": "inactive"}
{"gene": "CST9", "reagent": 2, "total luciferase, z-score": 0.176, "total luciferase, % of control": 85.4, "call": "inactive"}
{"gene": "CST9", "reagent": 3, "total luciferase, z-score": -2.61, "total luciferase, % of control": 30, "call": "inactive"}

Reprinted from above (6 entries):
{"gene": "HIPK3", "reagent": 1, "total luciferase, z-score": 0.821, "total luciferase, % of control": 98.2, "call": "inactive"}
{"gene": "HIPK3", "reagent": 2, "total luciferase, z-score": -1.94, "total luciferase, % of control": 43.4, "call": "inactive"}
{"gene": "HIPK3", "reagent": 3, "total luciferase, z-score": -1.67, "total luciferase, % of control": 48.7, "call": "inactive"}
{"gene": "CST9", "reagent": 1, "total luciferase, z-score": -0.804, "total luciferase, % of control": 65.9, "call": "inactive"}
{"gene": "CST9", "reagent": 2, "total luciferase, z-score": 0.176, "total luciferase, % of control": 85.4, "call": "inactive"}
{"gene": "CST9", "reagent": 3, "total luciferase, z-score": -2.61, "total luciferase, % of control": 30, "call": "inactive"}
